PubChem BioAssay AID1224828 – NIAID – 2016

Purpose: 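Find genes required for NF-kappaB p65 moving into the nucleus after LPS in mouse macrophages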 (primary screen)
System: mouse RAW264.7 G9 macrophage reporter cells (GFP-p65, Tnf promoter-mCherry)
Reagents: siRNA pool against mouse genes, 100 nM
Time to read-out: 2 days siRNA transfection, then 40 min LPS before fixation
Challenge: LPS (Salmonella minnesota R595) at 10 ng/ml
Detection: 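Microscopy ratio of nuclear to perinuclear-ring GFP-p65 signal, scaled to the plate median; gene score is the average of two replicate robust z-scores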
Scale: p65 translocation robust z-score: higher = more nuclear NF-kappaB p65 after LPS than the plate median; nuclear/cytoplasmic p65 ratio: higher = more nuclear NF-kappaB p65
Active means: 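Called active when z exceeds 3.3 or falls under -1.56 (median of Tlr4 controls), giving activity score of at least 50; no calls for control wells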
Meaning of the calls: active = hit (p65 shift raised or lowered); inactive = no clear change
Shown is an unselected part of about 17,000 reagents. Of all reagents, 762 (4.5%) got an active call. 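Active calls include both raised and lowered p65 entry, mostly lowered; wells with fewer than 50 cells lack a z-score.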 The raw values are shown without normalisation. Unmarked entries are inactive.

| target | p65 translocation robust z-score | nuclear/cytoplasmic p65 ratio, rep 1 | nuclear/cytoplasmic p65 ratio, rep 2 | low cell count flag |
| --- | --- | --- | --- | --- |
| Dmac2 | – | 1.21 | 1.25 | fewer than 50 cells per well; well left out of scoring |
| Batf2 | 0.56 | 1.43 | 1.54 | enough cells to score |
| Pbld1 | -0.98 | 1.41 | 1.31 | enough cells to score |
| Ift74 | 0.25 | 1.67 | 1.78 | enough cells to score |
| Cux2 | -1.4 | 1.38 | 1.55 | enough cells to score |
| Ndufb11 | 0.44 | 1.83 | 1.55 | enough cells to score |
| Uba3 | 0.07 | 1.56 | 1.48 | enough cells to score |
| Bnip3 | -0.03 | 1.63 | 1.59 | enough cells to score |
| Plekhg6 | 0.11 | 1.7 | 1.56 | enough cells to score |
| Or1j19 | – | 1.58 | 1.25 | fewer than 50 cells per well; well left out of scoring |
| Defb13 | 0.36 | 1.65 | 1.57 | enough cells to score |
| Stk4 | – | 1.17 | 1.26 | fewer than 50 cells per well; well left out of scoring |

In a second layout: results already given.
{"target":"Uba3","p65 translocation robust z-score":0.07,"nuclear/cytoplasmic p65 ratio, rep 1":1.56,"nuclear/cytoplasmic p65 ratio, rep 2":1.48,"low cell count flag":"enough cells to score"}
{"target":"Bnip3","p65 translocation robust z-score":-0.03,"nuclear/cytoplasmic p65 ratio, rep 1":1.63,"nuclear/cytoplasmic p65 ratio, rep 2":1.59,"low cell count flag":"enough cells to score"}
{"target":"Plekhg6","p65 translocation robust z-score":0.11,"nuclear/cytoplasmic p65 ratio, rep 1":1.7,"nuclear/cytoplasmic p65 ratio, rep 2":1.56,"low cell count flag":"enough cells to score"}

The results go on.
| target | p65 translocation robust z-score | nuclear/cytoplasmic p65 ratio, rep 1 | nuclear/cytoplasmic p65 ratio, rep 2 | low cell count flag |
| --- | --- | --- | --- | --- |
| Mir9-2hg | -0.55 | 1.42 | 1.38 | enough cells to score |
| D16Ertd472e | -0.49 | 1.43 | 1.54 | enough cells to score |
| Katnal2 | – | 1.17 | 1.41 | fewer than 50 cells per well; well left out of scoring |
| Nt5c2 | 0.96 | 1.98 | 1.57 | enough cells to score |
| Vps13b | 1.62 | 1.68 | 1.72 | enough cells to score |
| Ankrd44 | – | 1.2 | 1.61 | fewer than 50 cells per well; well left out of scoring |
| Pgc | 0.21 | 1.32 | 1.27 | enough cells to score |
| Zfp641 | -0.76 | 1.32 | 1.44 | enough cells to score |
| Ruvbl1 | -1.18 | 1.39 | 1.31 | enough cells to score |
| Zfp90 | 1.53 | 1.62 | 1.42 | enough cells to score |
| Srpx2 | 0.46 | 1.56 | 1.55 | enough cells to score |
| Ttc7 | – | 1.56 | 1.09 | fewer than 50 cells per well; well left out of scoring |
